Source: PubChem BioAssay AID1347423 (Functional Genomics Laboratory (NCATS/FGL), 2020)
The campaign covered roughly 52,000 sequences. About 210 (0.4%) were called active.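 The calls were made as follows: active = gene whose silencing raises cell survival under the drug, median off-target-corrected z-score across its silencing RNAs 2 or more; inactive = the rest.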 This is one part of the list.

Test: Resistance to Poly (ADP-Ribose) Polymerase inhibitor: Gene Identification via Genome-wide siRNA Screen
Conditions: mouse BRCA2 R2336H ES cells, olaparib, CellTiter-Glo viability; active compounds read high
Procedure, shortened: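 Genome-wide siRNA screen (3 siRNAs/gene, 20 nM) in mouse ES cells carrying hypomorphic BRCA2 R2336H; olaparib 500 nM added 48 h post-transfection, CellTiter-Glo viability 72 h later. Normalized to plate-median negative control; MAD z-scores, gene median, seed-adjusted.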

Sequence	z-score
CGAGGAAAAUUCCCGUCCCTT against 1810003N24Rik	inactive: -0.593
GCAAUGGCUGAAAUCCUCCTT against Dnmt3l	inactive: -0.48
CCAUUGUGUGGUACUUAAATT against 4833420N02Rik	inactive: -1.12
GCACGAAUCCUUGGAGAAATT against 4933430F08Rik	inactive: -1.11
GGCCAAGGUCAAUAACUCCTT against Recc1	inactive: 0.752
GGUUGAAUAUUGAAUGGAATT against 9130422G05Rik	inactive: 0.44
GGAUUACCCAUCCUACACATT against Eya4	inactive: -0.867
GGCACUACUAAGAACCUUATT against A630048M13Rik	inactive: -0.111
GGCUCCAGUACGUCAUCCUTT against 2610528O22Rik	inactive: -0.672
GGUUAACUUGAGCUCUGUGTT against Znrf4	inactive: -0.861
GGUAAAACUGUAGUGAUCGTT against Slfn4	inactive: -1.14
UUGUGAUUCCAAUUUCCCUTT against Olfr1330	inactive: -1.21
GGAACAUGACAUUUUUGUCTT against 1500032L24Rik	inactive: -0.579
CCAUAAAUCACUCAGUUUGTT against Tenr	inactive: 1.11
GGCUGAGAAGCUAAAGGAGTT against Pabpn1	inactive: -0.504
GCGAAUGGAUUGCUACAAUTT against Klhl7	inactive: 0.00963
GGGAGUCAUUCCCAAUGAUTT against Mras	inactive: -1.06
UCCGUUGGAGUAUCGAUGUTT against MGC102419	inactive: -0.312
GCUACGUCACUUCUGUUUUTT against Acmsd	inactive: -0.161
GGCCAGAUGCAGUCUGUGUTT against 2410170E21Rik	inactive: -1.65
GGCUCUAGGACCAAAAUUUTT against Hsd3b2	inactive: 0.8
CCCUCGUUGCUUUCUGCAUTT against Slc16a8	inactive: -0.387
GGAUUUUUGCCUCUAACUUTT against Bysl	inactive: -2.72
GGACUUUGAGGAGAAGGAUTT against Rabep2	inactive: -1.27
GCUGGAAGAAAACUUCUAUTT against Phf15	inactive: 0.188
GCUGGAUCUAGGUACCAAGTT against 2410170E21Rik	inactive: -1.19

4 records picked at random from the list so far, as already listed:
Sequence	z-score
GCAAUGGCUGAAAUCCUCCTT against Dnmt3l	inactive: -0.48
CGAGGAAAAUUCCCGUCCCTT against 1810003N24Rik	inactive: -0.593
GCACGAAUCCUUGGAGAAATT against 4933430F08Rik	inactive: -1.11
GGGAGUCAUUCCCAAUGAUTT against Mras	inactive: -1.06

Looked up above.
GGCUCCAGUACGUCAUCCUTT against 2610528O22Rik | z-score: inactive: -0.672
GGAUUUUUGCCUCUAACUUTT against Bysl | z-score: inactive: -2.72
UCCGUUGGAGUAUCGAUGUTT against MGC102419 | z-score: inactive: -0.312

Next results:

Sequence	z-score
GGAAUCAGCAAACUCAACCTT against Rnase11	inactive: -0.619
GCAUGGGAUUGGUUCAUGATT against Nmi	inactive: -0.669
GCCCAAAAAGGAGGGUAGUTT against Aebp1	inactive: 1.64
GGCUCUUUGAAGUACUACATT against Ercc1	inactive: -1.39
GGAUUCAAGGAAGGCCUUCTT against Myl7	inactive: -0.0901
CCAGUGGUCUGAAUCAGAUTT against Fbxw11	inactive: 0.544
GCCCGUCCUGUUUGGAUUATT against Wdr53	inactive: 0.195
GGUGAAGUUUUUCUACUUGTT against Tram2	inactive: -0.679
GGACAAGUUUAACAGGAAUTT against Apoa4	inactive: 2.13
GGAGCACUUUGUAUGGAACTT against 3010021M21Rik	inactive: 1
GGAAUGGUUGCCUCUGUUATT against Olfr1182	inactive: -0.241
CCGAAAACAAUAACUCCUCTT against Six1	inactive: 0.0211
GCCUGGUUUAACAAUCCUCTT against 9630048M01Rik	inactive: 1.04
GGACAAGCUAGAAUUUGCCTT against BC003266	inactive: -0.372
CCCACCAGUUGUCAUGAAUTT against 2900075G08Rik	inactive: 0.843
GGUCACCCAUGUACUUCUUTT against Olfr1189	inactive: 0.28
GGAACACUGGAAAAAUGUUTT against Ldh3	inactive: 0.332
GGCAGAGCUCAAAAAGAAATT against Ankrd1	inactive: -0.111
CGUAGAUCUUUCAUUUGUCTT against 2610025M23Rik	inactive: 1.42
GGAACUAGAAGAAAUGUUATT against Mrps9	inactive: -0.451
GGAGAAUCAUGGACAGCUGTT against Olfr2	inactive: -1.02
GGCUGAGAUCUAGCUUACATT against Hist2h3c2	inactive: -0.0286
GGACAUUGUCCUGAAUGGCTT against Hsd3b3	inactive: -0.372
GGAGAGCAUUUCUUAAGAATT against Pex14	inactive: -0.976
CCAAAAGUCCGAUAUGAAATT against D14Ertd231e	inactive: -1.57
GAAUGCUAUUAGGAAACUGTT against Olfr1226	inactive: -0.137

Sequence	z-score
UUUUGCUGAAUGGUAUGUATT against Cpsf6	inactive: 0.3
GCCAGAAGUCCGAUACUACTT against Plk2	inactive: -0.0495
CGAGUUCCCUAUCAAUCUCTT against Flrt1	inactive: 0.164
GGGAGAAAAAGGCAUUUUUTT against 1110038F21Rik	inactive: 1.68
GGAGCUAGAGUGCUCAAGATT against Ceacam14	inactive: 1.3
GUUUCUGGGUGAGCGCGAUTT against Fzd2	inactive: -1.19
AGCUCCAUCCUAAUGAGGUTT against Klk22	inactive: -0.923
GGCCAAGGAAAGUAUGAAUTT against Sox7	inactive: 0.616
GGACAUGUACAGACCUCACTT against Cacng5	inactive: -0.402
GCCAUUUCAUACAUUUUACTT against C630028L02Rik	inactive: 2
CGGACUCAAGCUUGUGAAATT against Bk	inactive: -0.508
GGCUUACCAAUGUGAAUGGTT against Trpv5	inactive: -0.397
GGAAUCUUUAGACCAUCUCTT against Myh1	inactive: 1.77
GAACUACUACCGCUUAGCATT against Mrs2l	inactive: -0.336
GCUGACUCUUAGAUAAAUATT against Seh1l	inactive: -1.2
CCAAUUUGUCAAAACAAUCTT against Slit2	inactive: 1.22
GGCUUCUACACAUGGGAUGTT against Rnaset2	inactive: -0.673
GGAAGAUUUUUCAAGAAAGTT against 4833420K19Rik	inactive: 1.71
GGAAGAAACAGGGAUUGAUTT against 5330438E18Rik	inactive: -0.473
CGGUCCUUUUUAAACACUUTT against BC011468	inactive: -0.208
GCCUGUUCGGUGUUCAACUTT against Etv3	inactive: -0.395
GUCCAGUAACAUGCAUGAGTT against Defb6	inactive: -2.58
GGAAAAGAUUGUCUUGUCCTT against 0710005M24Rik	inactive: -0.571
GGCAACUGAAUGUUUCCUATT against D7Rp2e	inactive: -0.333
GCUCUAGACAUAUGAGGCUTT against BC052883	inactive: 0.828
GGCAUGUAUCAUUUUGUCATT against E430028B21Rik	inactive: 0.11

Sequence	z-score
GGAUAAAGAGUUUUACAGATT against Prg	inactive: 0.102
GGACUGUGAAAAGAUGUACTT against Tmprss8	inactive: 0.0642
GGACCUGAAUCCUCCCAAATT against G431001E03Rik	inactive: 0.202
CGAACCAGGAAAUGGAUUCTT against Crhbp	inactive: 1.04
GGUUACCAGUUAUAUGGCGTT against Mccc2	inactive: 0.75
CGGAAGGAAGUGCCUAAACTT against 2610510H01Rik	inactive: -0.665
GUAGGAAGGAGUGAGCAUUTT against Rslcan24	inactive: 0.00982
CCGAGAGGAUCGUAUAUCATT against Plcg1	inactive: 0.712
GGGACAAUUCAGGAUGGAGTT against Tg737Rpw	inactive: 0.351
CCUUCGACUAUUCUUACUGTT against Kif1c	inactive: -0.0667
GGAAAAGAGUGAGAUUCAGTT against 4632409L19Rik	inactive: 3.08
GACAUACACCUCACCUUGUTT against Hoxa6	inactive: 0.0073
GCCAGGUGGAACCAAGUAUTT against Zcchc17	inactive: -2.9
GGUCUAGCUGCAUUGUUUGTT against Lgals8	inactive: 0.757
GAAGAUCUUUCCCAUGGGUTT against Psmb3	inactive: -2.96
GGAAGCCAUGUUUGGAAGATT against 1110014K05Rik	inactive: 0.959
GGUACAAACAAGAUGUGGATT against Smc5l1	inactive: -0.662
GGAACUUUGUGAAGGAAGCTT against Cog8	inactive: -0.446
CCAGUAAACCGAGACCAUUTT against Nsfl1c	inactive: 1.53
GGUAUAUGUCACCAUACUCTT against Phxr2	inactive: -0.404
CCUGUGUCUAUAUUCUUAGTT against Tep1	inactive: -1.3
CCUAGAGCUUUUUAUAACATT against 7-Sep	inactive: 0.855
CGUUUCAACAAGCUCGUGUTT against 1700012H05Rik	inactive: -1.34
GGUAAUUGAGAAAUUUGAGTT against AA536749	inactive: -0.339
GCGUAGACAAAAAACUAUCTT against F13b	inactive: -0.0775
